These are yes or no findings as the source states them, for the method shown. Binding seen in cells or lysates may run through a third protein. Here binding means that the protein was enriched with, or labelled near, the bait; the list need not be complete. Where a sequence is shown, tags or fusion partners need not be part of it.

By UniProt entry, the sequences of proteins in these tests, tags left out. Where a name states a change or a piece, a line headed by the entry shows the natural chain unless it says otherwise.
UniProt Q97UK6: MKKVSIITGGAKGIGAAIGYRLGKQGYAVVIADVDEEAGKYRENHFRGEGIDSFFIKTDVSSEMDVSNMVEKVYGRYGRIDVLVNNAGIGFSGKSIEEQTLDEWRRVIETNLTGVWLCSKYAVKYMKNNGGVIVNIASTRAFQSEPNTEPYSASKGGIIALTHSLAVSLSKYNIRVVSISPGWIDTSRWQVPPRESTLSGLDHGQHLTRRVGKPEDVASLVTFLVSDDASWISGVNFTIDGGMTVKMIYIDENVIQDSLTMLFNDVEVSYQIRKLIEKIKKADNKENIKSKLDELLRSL
UniProt Q97VT8: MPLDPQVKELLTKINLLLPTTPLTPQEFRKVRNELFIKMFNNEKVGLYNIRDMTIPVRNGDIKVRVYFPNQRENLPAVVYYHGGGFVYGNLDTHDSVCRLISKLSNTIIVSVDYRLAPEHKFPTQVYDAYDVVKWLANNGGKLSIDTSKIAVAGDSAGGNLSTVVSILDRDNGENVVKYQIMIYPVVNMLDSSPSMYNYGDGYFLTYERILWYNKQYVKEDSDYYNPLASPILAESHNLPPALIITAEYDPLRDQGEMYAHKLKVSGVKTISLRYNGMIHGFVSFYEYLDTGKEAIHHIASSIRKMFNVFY
UniProt Q97ZQ0: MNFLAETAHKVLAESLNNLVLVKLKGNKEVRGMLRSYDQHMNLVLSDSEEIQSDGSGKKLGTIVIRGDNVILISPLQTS

This assay deals with T1, N-His-aIF5A produced in Sso PH1-16 (pMJ05-N-His-aIF5A) (Sulfolobus solfataricus) (UniProt Q97ZE8).
T1 sequence (chain, modified, recognised by anti-hypusine antibodies (hypusine or deoxyhypusine)): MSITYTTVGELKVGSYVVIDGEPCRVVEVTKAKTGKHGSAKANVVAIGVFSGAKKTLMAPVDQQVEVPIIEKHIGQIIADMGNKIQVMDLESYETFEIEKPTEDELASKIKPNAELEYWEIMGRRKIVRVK
Put plainly: affinity purification with mass spectrometry; N-His-aIF5A and co-purifying proteins from lysate of Sso PH1-16 (pMJ05-N-His-aIF5A) on Ni-NTA agarose; wash with 300 mM NaCl; whole eluate digested with trypsin, LC-MS/MS, label free quantification against a mock purification; enriched more than ….
As to “3-Oxoacyl reductase (from UniProt Q97UK6)”, the binding result is reported as “binds”.

For the substance Acetoacetyl-CoA thiolase, the binding result was “binds”.

As for Carboxylesterase (from UniProt Q97VT8), the binding result was “binds”.

Take SmAP1 (from UniProt Q97ZQ0): the binding entry is “binds”.

Regarding Succinate dehydrogenase, the binding result is listed as “binds”.

Values taken from PMC6105217.
